Measurements: the supplement of paper PMC10849652
The list shows a part of the results.

Sequences of proteins named here, by UniProt entry; tags and fusion partners are left off. A change or cut given only in a name is not applied to a line headed by its entry.
UniProt Q8NG08: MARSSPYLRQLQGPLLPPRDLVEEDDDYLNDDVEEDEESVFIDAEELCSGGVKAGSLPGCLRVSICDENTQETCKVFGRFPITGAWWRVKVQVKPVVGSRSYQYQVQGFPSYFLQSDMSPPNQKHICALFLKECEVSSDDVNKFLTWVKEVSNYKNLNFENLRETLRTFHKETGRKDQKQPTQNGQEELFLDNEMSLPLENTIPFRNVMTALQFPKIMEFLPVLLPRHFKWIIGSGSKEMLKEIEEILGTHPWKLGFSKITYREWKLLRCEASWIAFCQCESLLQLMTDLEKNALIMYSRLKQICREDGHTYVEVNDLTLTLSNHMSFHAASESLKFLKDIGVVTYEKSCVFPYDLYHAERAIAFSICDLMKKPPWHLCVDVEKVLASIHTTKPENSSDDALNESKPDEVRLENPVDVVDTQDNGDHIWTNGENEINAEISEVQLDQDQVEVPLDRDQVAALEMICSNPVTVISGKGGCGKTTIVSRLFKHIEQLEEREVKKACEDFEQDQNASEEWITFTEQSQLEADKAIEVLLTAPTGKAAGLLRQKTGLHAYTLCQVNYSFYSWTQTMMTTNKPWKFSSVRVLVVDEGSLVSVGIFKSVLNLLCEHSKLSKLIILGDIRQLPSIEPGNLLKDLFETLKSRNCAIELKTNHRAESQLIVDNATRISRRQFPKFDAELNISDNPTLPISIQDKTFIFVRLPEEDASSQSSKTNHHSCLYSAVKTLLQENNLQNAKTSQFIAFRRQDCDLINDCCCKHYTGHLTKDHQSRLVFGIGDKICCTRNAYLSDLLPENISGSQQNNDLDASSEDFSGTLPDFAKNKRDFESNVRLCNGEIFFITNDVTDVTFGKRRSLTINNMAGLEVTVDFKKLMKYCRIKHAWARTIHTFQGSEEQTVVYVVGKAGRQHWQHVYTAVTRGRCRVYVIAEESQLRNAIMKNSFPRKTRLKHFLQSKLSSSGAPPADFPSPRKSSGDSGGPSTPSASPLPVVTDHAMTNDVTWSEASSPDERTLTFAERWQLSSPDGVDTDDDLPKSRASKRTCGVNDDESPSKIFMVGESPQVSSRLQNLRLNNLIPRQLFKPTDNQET
UniProt O43390: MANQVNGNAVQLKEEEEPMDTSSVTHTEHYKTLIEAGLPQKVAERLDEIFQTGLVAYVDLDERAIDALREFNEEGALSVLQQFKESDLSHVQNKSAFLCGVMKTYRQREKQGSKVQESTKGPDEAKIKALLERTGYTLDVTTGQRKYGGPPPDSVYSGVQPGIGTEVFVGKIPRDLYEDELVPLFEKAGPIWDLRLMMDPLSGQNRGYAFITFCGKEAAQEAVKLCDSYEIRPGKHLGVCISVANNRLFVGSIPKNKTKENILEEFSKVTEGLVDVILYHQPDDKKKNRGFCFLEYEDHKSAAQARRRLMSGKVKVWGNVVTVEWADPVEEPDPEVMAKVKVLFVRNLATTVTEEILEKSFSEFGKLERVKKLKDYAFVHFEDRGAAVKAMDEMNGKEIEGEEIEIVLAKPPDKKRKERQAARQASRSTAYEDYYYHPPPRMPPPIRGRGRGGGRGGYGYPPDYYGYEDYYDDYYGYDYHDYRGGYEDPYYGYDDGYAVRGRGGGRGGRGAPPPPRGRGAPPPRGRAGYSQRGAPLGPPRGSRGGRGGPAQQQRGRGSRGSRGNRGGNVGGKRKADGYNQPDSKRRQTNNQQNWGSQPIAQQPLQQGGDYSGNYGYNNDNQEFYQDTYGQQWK
UniProt P0DMV8, whole entry, looked up: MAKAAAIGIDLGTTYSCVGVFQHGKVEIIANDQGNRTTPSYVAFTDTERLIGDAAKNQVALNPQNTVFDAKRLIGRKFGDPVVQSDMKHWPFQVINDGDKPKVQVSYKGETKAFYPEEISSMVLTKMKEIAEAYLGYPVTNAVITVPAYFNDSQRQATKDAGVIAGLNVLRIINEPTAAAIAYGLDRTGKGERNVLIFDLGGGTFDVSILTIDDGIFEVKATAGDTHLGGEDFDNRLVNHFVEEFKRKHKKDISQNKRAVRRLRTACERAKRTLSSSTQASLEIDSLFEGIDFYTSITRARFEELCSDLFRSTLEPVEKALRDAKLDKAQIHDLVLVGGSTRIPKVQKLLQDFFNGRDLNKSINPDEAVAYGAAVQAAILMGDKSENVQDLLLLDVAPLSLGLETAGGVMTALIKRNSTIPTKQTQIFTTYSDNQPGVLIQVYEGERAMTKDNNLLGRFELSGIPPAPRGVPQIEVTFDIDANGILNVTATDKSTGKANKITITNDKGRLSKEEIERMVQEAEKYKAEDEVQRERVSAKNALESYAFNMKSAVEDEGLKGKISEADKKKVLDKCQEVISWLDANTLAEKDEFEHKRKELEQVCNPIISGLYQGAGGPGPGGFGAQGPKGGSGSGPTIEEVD
UniProt Q96JB3: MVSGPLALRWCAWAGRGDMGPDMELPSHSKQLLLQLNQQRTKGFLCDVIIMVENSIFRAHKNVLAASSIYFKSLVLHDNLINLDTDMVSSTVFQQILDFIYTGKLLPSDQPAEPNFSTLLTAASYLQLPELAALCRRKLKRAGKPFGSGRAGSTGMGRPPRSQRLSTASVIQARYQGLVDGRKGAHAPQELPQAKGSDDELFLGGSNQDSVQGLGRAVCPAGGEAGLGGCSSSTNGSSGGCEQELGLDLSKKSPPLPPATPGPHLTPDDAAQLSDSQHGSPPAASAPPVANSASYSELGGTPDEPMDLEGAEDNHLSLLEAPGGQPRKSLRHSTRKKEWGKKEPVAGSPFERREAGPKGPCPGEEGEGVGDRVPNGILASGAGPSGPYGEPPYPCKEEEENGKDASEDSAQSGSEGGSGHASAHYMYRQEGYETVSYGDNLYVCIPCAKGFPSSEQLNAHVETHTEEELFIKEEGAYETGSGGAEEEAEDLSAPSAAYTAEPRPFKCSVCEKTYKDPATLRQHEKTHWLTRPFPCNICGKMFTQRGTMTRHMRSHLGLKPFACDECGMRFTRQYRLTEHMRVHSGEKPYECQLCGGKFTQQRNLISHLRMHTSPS
UniProt P26583: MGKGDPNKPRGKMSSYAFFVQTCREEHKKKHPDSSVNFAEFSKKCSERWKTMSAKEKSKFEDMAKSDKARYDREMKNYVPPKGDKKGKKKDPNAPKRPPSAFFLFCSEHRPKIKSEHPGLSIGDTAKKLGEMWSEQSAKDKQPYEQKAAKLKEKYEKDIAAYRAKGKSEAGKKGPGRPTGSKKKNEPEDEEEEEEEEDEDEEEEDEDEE
UniProt Q86VS8: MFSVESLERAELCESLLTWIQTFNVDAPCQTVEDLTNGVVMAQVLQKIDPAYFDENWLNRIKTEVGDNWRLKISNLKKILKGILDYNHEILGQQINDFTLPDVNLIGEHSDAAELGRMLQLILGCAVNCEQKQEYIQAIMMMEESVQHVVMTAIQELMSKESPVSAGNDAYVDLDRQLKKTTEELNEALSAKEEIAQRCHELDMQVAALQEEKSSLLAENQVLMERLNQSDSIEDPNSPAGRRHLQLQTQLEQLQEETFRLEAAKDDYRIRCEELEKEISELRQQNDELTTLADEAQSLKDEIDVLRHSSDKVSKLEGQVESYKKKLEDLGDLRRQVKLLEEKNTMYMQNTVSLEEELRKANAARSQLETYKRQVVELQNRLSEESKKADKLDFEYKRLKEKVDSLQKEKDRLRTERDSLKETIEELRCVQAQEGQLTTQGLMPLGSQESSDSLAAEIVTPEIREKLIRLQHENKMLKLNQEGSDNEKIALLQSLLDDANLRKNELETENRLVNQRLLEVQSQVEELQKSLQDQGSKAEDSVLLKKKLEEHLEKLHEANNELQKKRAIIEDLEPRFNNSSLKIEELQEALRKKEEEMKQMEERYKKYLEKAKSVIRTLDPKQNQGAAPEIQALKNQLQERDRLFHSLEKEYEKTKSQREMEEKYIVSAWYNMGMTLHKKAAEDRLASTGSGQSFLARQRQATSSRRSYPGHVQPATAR
UniProt Q6YN16: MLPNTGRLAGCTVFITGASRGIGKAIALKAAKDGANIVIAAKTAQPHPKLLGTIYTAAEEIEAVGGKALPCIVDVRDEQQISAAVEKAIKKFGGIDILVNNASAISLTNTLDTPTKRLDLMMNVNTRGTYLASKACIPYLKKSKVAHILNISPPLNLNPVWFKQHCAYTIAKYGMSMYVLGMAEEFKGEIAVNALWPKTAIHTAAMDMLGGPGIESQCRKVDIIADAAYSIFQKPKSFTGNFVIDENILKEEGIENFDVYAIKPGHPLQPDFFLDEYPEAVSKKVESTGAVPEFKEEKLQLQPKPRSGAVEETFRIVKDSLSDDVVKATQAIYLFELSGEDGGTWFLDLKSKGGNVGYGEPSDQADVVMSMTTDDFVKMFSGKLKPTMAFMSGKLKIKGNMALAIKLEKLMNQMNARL
UniProt Q1KMD3: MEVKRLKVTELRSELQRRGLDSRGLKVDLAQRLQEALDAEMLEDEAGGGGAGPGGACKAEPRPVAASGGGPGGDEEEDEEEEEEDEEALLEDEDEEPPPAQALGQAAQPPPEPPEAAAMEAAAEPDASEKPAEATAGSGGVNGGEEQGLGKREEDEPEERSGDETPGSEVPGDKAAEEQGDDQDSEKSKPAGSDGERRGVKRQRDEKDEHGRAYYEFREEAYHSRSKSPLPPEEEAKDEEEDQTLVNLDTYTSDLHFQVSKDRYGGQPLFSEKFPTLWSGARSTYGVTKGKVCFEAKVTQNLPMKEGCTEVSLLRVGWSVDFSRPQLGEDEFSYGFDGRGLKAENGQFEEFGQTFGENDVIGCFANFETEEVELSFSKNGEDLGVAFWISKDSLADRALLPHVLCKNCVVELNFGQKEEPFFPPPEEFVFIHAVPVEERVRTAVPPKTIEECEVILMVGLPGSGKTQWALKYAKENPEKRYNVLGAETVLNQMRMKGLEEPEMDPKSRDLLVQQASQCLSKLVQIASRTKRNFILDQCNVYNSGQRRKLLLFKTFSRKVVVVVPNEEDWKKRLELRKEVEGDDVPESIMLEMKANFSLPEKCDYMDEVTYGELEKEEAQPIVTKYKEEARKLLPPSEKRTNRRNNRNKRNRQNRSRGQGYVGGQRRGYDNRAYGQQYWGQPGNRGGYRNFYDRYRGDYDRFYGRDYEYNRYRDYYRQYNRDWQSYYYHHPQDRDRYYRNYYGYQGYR

Columns and labels:
Assay in all cases: log2 fold change, soluble protein after heating vs DMSO (PISA); higher = thermal stabilisation; K562 lysate, 10 uM; active = over 0.2 and 3.5 SD of the protein, either way, in both replicates (recomputed)
lapatinib = compound: CS(=O)(=O)CCNCc1ccc(-c2ccc3ncnc(Nc4ccc(OCc5cccc(F)c5)c(Cl)c4)c3c2)o1 [lapatinib]
Summary of the method: (§1)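 The values are log-two fold changes in thermal stability compared with solvent controls and come from duplicates. They were obtained by TMTpro 16plex LC-MS/MS, with channel sums equalised, on the supernatant after 21,000xg for 90 min. That supernatant came from crude K562 extract at 1 mg/mL protein treated with 10 μM compound for 30 min, heated for 3 min across 48°C-58°C, pooled and brought to 0.5% NP-40 at 4°C.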

pictilisib = compound: CS(=O)(=O)N1CCN(Cc2cc3nc(-c4cccc5[nH]ncc45)nc(N4CCOCC4)c3s2)CC1 [pictilisib]
Summary of the method: as §1

crizotinib = compound: C[C@@H](Oc1cc(-c2cnn(C3CCNCC3)c2)cnc1N)c1c(Cl)ccc(F)c1Cl [crizotinib]
Summary of the method: as §1

[1] = compound: C[C@H](C1=CC=C(C=C1)C(=O)NC2=C3C=CNC3=NC=C2)N
Summary of the method: as §1

duvelisib = compound: C[C@H](Nc1ncnc2nc[nH]c12)c1cc2cccc(Cl)c2c(=O)n1-c1ccccc1 [duvelisib]
Summary of the method: as §1

gandotinib = compound: Cc1cc(Nc2cc(CN3CCOCC3)c3nc(C)c(Cc4ccc(Cl)cc4F)n3n2)n[nH]1 [gandotinib]
Summary of the method: as §1

tozasertib = compound: Cc1cc(Nc2cc(N3CCN(C)CC3)nc(Sc3ccc(NC(=O)C4CC4)cc3)n2)n[nH]1 [tozasertib]
Summary of the method: as §1

doramapimod = compound: Cc1ccc(-n2nc(C(C)(C)C)cc2NC(=O)Nc2ccc(OCCN3CCOCC3)c3ccccc23)cc1 [doramapimod]
Summary of the method: as §1

bafetinib = compound: Cc1ccc(NC(=O)c2ccc(CN3CC[C@H](N(C)C)C3)c(C(F)(F)F)c2)cc1Nc1nccc(-c2cncnc2)n1 [bafetinib]
Summary of the method: as §1

[2] = compound: Cc1cccc(CC(=O)N2CCc3c2ccc(-c2cn(C)c4ncnc(N)c24)c3F)n1
Summary of the method: as §1

nilotinib = compound: Cc1cn(-c2cc(NC(=O)c3ccc(C)c(Nc4nccc(-c5cccnc5)n4)c3)cc(C(F)(F)F)c2)cn1 [nilotinib]
Summary of the method: as §1

[3] = compound: Cc1nc(Nc2n[nH]c3c2CN(C(=O)N[C@H](CN(C)C)c2ccccc2)C3(C)C)c2sccc2n1
Summary of the method: as §1

dasatinib = compound: Cc1nc(Nc2ncc(C(=O)Nc3c(C)cccc3Cl)s2)cc(N2CCN(CCO)CC2)n1 [dasatinib]
Summary of the method: as §1

[4] = compound: Cc1ncc(-c2ccnc(Nc3ccc(S(C)(=O)=O)cc3)n2)n1C(C)C
Summary of the method: as §1

[5] = compound: Cn1cc(-c2ccc3c(c2)CCN3C(=O)Cc2cccc(C(F)(F)F)c2)c2c(N)ncnc21
Summary of the method: as §1

quisinostat = compound: Cn1cc(CNCC2CCN(c3ncc(C(=O)NO)cn3)CC2)c2ccccc21 [quisinostat]
Summary of the method: as §1

tipifarnib = compound: Cn1cncc1[C@@](N)(c1ccc(Cl)cc1)c1ccc2c(c1)c(-c1cccc(Cl)c1)cc(=O)n2C [tipifarnib]
Summary of the method: as §1

[6] = compound: NC(=O)Nc1cc(-c2cccc(F)c2)sc1C(=O)N[C@H]1CCCNC1
Summary of the method: as §1

[7] = compound: NC(=O)c1cnc(N[C@@H]2CCCC[C@@H]2N)nc1Nc1cccc(-n2nccn2)c1
Summary of the method: as §1

[8] = compound: NC1(c2ccc(-c3nc4ccn5c(=O)[nH]nc5c4cc3-c3ccccc3)cc2)CCC1
Summary of the method: as §1

Target | log2 fold change (lapatinib) | log2 fold change (pictilisib) | log2 fold change (crizotinib) | log2 fold change [1] | log2 fold change (duvelisib) | log2 fold change (gandotinib) | log2 fold change (tozasertib) | log2 fold change (doramapimod) | log2 fold change (bafetinib) | log2 fold change [2] | log2 fold change (nilotinib) | log2 fold change [3] | log2 fold change (dasatinib) | log2 fold change [4] | log2 fold change [5] | log2 fold change (quisinostat) | log2 fold change (tipifarnib) | log2 fold change [6] | log2 fold change [7] | log2 fold change [8]
HELB (UniProt Q8NG08) | inactive: 0.115 | inactive: -0.014 | inactive: -0.004 | inactive: -0.048 | inactive: 0.022 | inactive: -0.031 | inactive: 0.009 | inactive: -0.009 | inactive: -0.044 | inactive: 0.103 | inactive: 0.012 | inactive: -0.031 | inactive: 0.027 | inactive: 0.016 | inactive: 0.035 | inactive: -0.029 | inactive: -0.02 | inactive: 0.032 | inactive: 0.082 | inactive: 0.067
HNRNPR (UniProt O43390) | inactive: -0.066 | inactive: -0.039 | inactive: -0.132 | inactive: 0.001 | inactive: -0.03 | inactive: -0.046 | inactive: 0.111 | inactive: 0.118 | inactive: -0.004 | inactive: -0.054 | inactive: -0.001 | inactive: 0.112 | inactive: 0.02 | inactive: 0.263 | inactive: -0.074 | inactive: -0.067 | inactive: -0.006 | inactive: -0.034 | inactive: 0.004 | inactive: -0.036
HSPA1A (UniProt P0DMV8) | inactive: -0.001 | inactive: 0.029 | inactive: 0.012 | inactive: 0.201 | inactive: 0.022 | inactive: -0.085 | inactive: 0.024 | inactive: -0.002 | inactive: 0.077 | inactive: -0.078 | inactive: -0.009 | inactive: 0.018 | inactive: 0.012 | inactive: -0.004 | inactive: 0.002 | inactive: 0.012 | inactive: 0.01 | inactive: -0.011 | inactive: 0.006 | inactive: -0.006
HIC2 (UniProt Q96JB3) | inactive: 0.036 | inactive: 0.002 | inactive: 0.016 | inactive: -0.013 | inactive: 0.027 | inactive: 0.013 | inactive: 0.016 | inactive: -0.013 | inactive: -0.059 | inactive: 0.05 | inactive: 0.053 | inactive: 0 | inactive: -0.032 | inactive: 0.005 | inactive: 0.031 | inactive: 0.078 | inactive: -0.076 | inactive: -0.027 | inactive: 0.019 | inactive: -0.071
HMGB2 (UniProt P26583) | inactive: 0.006 | inactive: 0.021 | inactive: 0.052 | active: 0.266 | inactive: -0.01 | inactive: -0.16 | inactive: -0.022 | inactive: -0.088 | inactive: 0.14 | active: -0.244 | inactive: 0.045 | inactive: -0.042 | inactive: 0.057 | inactive: 0.077 | inactive: 0.018 | inactive: 0.065 | inactive: 0.033 | inactive: -0.014 | inactive: -0.018 | inactive: 0
HOOK3 (UniProt Q86VS8) | inactive: 0.005 | inactive: -0.03 | inactive: 0.008 | inactive: 0.004 | inactive: -0.021 | inactive: -0.018 | inactive: 0.038 | inactive: -0.019 | inactive: -0.019 | inactive: 0.027 | inactive: -0.032 | inactive: 0.03 | inactive: -0.048 | inactive: -0.022 | inactive: -0.002 | inactive: 0.008 | inactive: -0.044 | inactive: 0.001 | inactive: 0.01 | inactive: 0.013
HSDL2 (UniProt Q6YN16) | inactive: -0.002 | inactive: 0.003 | inactive: -0.006 | inactive: -0.089 | inactive: -0.028 | inactive: 0.073 | inactive: 0 | inactive: -0.011 | inactive: -0.027 | inactive: 0.097 | inactive: 0 | inactive: 0.007 | inactive: -0.02 | inactive: 0.019 | inactive: 0.013 | inactive: -0.012 | inactive: 0.005 | inactive: 0.033 | inactive: 0.004 | inactive: -0.021
HNRNPUL2 (UniProt Q1KMD3) | inactive: -0.037 | inactive: -0.028 | inactive: -0.033 | inactive: -0.002 | inactive: 0.012 | inactive: -0.005 | inactive: 0.009 | inactive: -0.008 | inactive: -0.009 | inactive: 0.043 | inactive: -0.037 | inactive: 0.02 | inactive: 0.002 | inactive: 0.009 | inactive: -0.005 | inactive: -0.046 | inactive: 0.008 | inactive: 0 | inactive: 0.004 | inactive: -0.008
